In article PMC11348242:
No constants are given. Whether binding was seen depends on the method and setting. In cells and extracts the contact can be indirect. Some binding calls cover weakened binding; strength is not graded here.

The chains behind the UniProt entries cited, without tags or fusion partners.
UniProt P12956: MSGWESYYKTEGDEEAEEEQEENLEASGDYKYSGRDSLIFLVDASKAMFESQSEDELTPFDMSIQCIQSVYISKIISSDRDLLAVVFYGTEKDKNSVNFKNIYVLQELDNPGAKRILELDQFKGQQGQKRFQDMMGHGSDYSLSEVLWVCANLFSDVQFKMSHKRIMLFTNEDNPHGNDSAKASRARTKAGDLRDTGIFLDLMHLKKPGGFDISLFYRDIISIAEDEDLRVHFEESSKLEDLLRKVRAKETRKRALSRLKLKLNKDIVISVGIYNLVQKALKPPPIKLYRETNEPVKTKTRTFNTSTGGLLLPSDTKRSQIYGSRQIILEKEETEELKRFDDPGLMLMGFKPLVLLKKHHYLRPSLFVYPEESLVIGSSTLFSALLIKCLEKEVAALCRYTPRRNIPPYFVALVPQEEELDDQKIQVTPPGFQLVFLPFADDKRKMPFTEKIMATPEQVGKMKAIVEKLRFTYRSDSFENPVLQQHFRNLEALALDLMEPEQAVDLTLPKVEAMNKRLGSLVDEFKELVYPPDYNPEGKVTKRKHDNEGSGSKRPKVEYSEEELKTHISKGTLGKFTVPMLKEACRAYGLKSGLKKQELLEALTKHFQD
UniProt P13010: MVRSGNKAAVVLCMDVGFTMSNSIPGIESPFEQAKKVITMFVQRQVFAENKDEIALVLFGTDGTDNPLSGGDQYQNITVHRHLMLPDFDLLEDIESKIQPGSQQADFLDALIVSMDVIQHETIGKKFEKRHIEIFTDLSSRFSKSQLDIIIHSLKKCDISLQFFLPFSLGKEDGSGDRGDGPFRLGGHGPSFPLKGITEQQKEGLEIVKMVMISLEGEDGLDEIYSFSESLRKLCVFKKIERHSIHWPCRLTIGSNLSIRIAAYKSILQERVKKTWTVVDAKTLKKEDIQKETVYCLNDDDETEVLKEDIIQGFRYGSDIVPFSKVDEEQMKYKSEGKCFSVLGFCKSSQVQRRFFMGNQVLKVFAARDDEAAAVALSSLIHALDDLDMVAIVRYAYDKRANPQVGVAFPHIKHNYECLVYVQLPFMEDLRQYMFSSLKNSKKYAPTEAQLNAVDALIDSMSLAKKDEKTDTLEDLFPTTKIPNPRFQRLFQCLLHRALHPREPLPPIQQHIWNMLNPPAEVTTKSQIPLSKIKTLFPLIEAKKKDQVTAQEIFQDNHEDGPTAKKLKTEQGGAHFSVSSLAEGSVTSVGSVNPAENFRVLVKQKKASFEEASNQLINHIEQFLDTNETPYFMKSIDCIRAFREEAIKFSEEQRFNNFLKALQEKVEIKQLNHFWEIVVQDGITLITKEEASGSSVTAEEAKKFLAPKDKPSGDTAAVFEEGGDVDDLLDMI

Target: T1, macrophage migration inhibitory factor (MIF) (human (endogenous in HeLa and HEK293)) (UniProt P14174)
T1 sequence: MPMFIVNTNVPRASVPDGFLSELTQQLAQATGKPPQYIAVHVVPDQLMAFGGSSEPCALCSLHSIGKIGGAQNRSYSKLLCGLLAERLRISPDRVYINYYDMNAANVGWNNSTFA
Test: co-IP; HEK293 cells, with or without RSL3 (4 µM, 2 h); immunoprecipitation with MIF, Ku70 or Ku80 antibodies, then immunoblot; rabbit and mouse IgG as negative controls

binding	Substance
binds	Ku70 (from UniProt P12956 1-609)
binds	Ku80 (from UniProt P13010 1-732)
